Experimental data published in PubChem BioAssay AID2517 (National Center for Advancing Translational Sciences (NCATS), 2010).
The campaign covered roughly 350,000 compounds. About 1,200 (0.34%) were called active. Inconclusive results, whose numbers are uncertain, are shown with a selection of clear calls. Calls follow the shape of the dose curve; as a rule, active = well fitted inhibition curve with a large enough effect; inconclusive = small, poorly fitted or top-dose-only effect; inactive = no such curve, though single readings can be large or run the other way. A potency beside an inconclusive call is a rough fit, not a confirmed value.
Also: nearly all actives have a fitted effect of over 55% in size.
Potency is read from the fitted curve at half-maximal effect.

Amino acid sequences for entries named in this document (tags omitted).
UniProt P27695, whole entry, looked up: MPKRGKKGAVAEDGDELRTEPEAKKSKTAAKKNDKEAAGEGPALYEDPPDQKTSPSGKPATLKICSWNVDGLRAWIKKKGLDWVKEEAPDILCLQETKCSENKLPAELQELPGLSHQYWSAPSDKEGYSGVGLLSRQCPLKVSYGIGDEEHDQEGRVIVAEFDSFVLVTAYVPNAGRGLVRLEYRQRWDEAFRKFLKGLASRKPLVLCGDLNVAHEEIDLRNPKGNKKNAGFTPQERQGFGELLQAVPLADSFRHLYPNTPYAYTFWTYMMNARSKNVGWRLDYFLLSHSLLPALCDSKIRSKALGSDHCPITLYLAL

These molecules were tested against DNA repair nuclease/redox regulator APEX1 (Homo sapiens) (UniProt P27695) (assay: qHTS Assay for Inhibitors of the Human Apurinic/apyrimidinic Endonuclease 1 (APE1)). Conditions: recombinant APE1, TAMRA/BHQ-2 abasic DNA cleavage fluorescence; series mostly up to 65.8 µM.
How it was run: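 Quantitative HTS: incision of a TAMRA/BHQ-2 double-stranded substrate bearing a tetrahydrofuran abasic site by 0.75 nM APE1 raises fluorescence. Substrate 50 nM final, added after 15 min compound preincubation at room temperature; progress as third-minus-first kinetic read difference.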
With Cc1ccc(CNc2ccc(N3CCOCC3)cc2)s1 the Potency was “inactive”. With O=C(NNc1cc(Cl)ccc1Cl)c1cccs1 the Potency was “inactive”. COC(=O)c1cc[n+](CC(=O)c2ccccc2)cc1 was tested, and the Potency was inconclusive: 50.1 µM [inhibitor, partial curve, poor fit]. With O=C(O)CCCCN1C(=O)/C(=C\c2ccc(OCc3ccccc3)c(OCc3ccccc3)c2)SC1=S the Potency was inconclusive: 26.7 µM [inhibitor, single point]. COc1ccc(Oc2c(Cl)cnn(-c3ccc(F)cc3)c2=O)cc1 was tested, and the Potency was inconclusive: 10 µM [inhibitor, single point]. For O=c1cc(CCl)nc2sc3ccccc3n12, the Potency was inconclusive: 20 µM [inhibitor, partial curve, poor fit]. In the case of NS(=O)(=O)c1ccc(NC(=S)NCc2cccc(Cl)c2)cc1, the Potency is reported as inconclusive: 17.8 µM [inhibitor, partial curve, poor fit]. For COc1ccc(N2CCN(C(C)C(=O)N3CC(C)OC(C)C3)CC2)cc1 (stereo unspecified), the Potency was inconclusive: 25.1 µM [inhibitor, partial curve]. Cc1ccc(CN=c2c([N+](=O)[O-])nn(-c3cccc(Cl)c3)n2O)cc1 was tested, and the Potency was inconclusive: 35.5 µM [inhibitor, partial curve]. With Cc1ccccc1OCC(=O)Nc1nnc(-c2ccco2)s1 the Potency was inconclusive: 10 µM [inhibitor, single point]. COc1ccc(/C=C/N(CCc2ccc(OC)c(OC)c2)C(=O)c2ccccn2)cc1 was tested, and the Potency was inconclusive: 8.91 µM [inhibitor, single point]. With NC(=O)C1CCN(C2CC(=O)NC2=O)CC1 (stereo unspecified) the Potency was inconclusive: 35.5 µM [inhibitor, partial curve]. With CCN(CC)CCNC(=O)COc1ccc(OC)cc1 the Potency was inconclusive: 25.1 µM [inhibitor, single point]. For C#CCOCCOCCOCCNc1nc(N2CCN(C(=O)CCCCCCCCCCNC(=O)[C@H]([C@@H](C)CC)n3cc(CCCCN=C(N)N)nn3)CC2)nc(N2CCN(C(=O)CCCCCCCCCCNC(=O)[C@H](CCCN=C(N)N)n3cc(C[C@@H](C)CC)nn3)CC2)n1, the Potency was inconclusive: 37.7 µM [inhibitor, single point]. For O=C1N=C(N2CCN(c3ccccc3)CC2)S/C1=C\c1ccco1, the Potency was inconclusive: 31.6 µM [inhibitor, single point]. O=C(O)COc1ccccc1C1C2C(=O)N(c3ccc(F)cc3)C(=O)C2ON1c1ccccc1 (stereo unspecified) was tested, and the Potency was inconclusive: 39.8 µM [inhibitor, single point]. For CC(C)CC(=O)NC(c1ccccc1)c1c(O)ccc2ccccc12 (stereo unspecified), the Potency was inconclusive: 26.7 µM [inhibitor, single point]. With O=C(CN1C(=O)C2C3CC(C(Br)C3Br)C2C1=O)Nc1ccc(C(=O)O)cc1 (stereo unspecified) the Potency was inconclusive: 31.6 µM [inhibitor, single point]. For COC(=O)c1cccc(C23CC4(C2)[C@H](CN(Cc2ccc(C(F)(F)F)cc2)[C@@H]4c2ccccc2)C3c2ccccc2)c1 (stereo partly specified), the Potency was “inactive”. With C[C@]12C[C@H](O)CC(CO)(CO)C1[C@H](O)C[C@@]13CC4[C@@H](CC12)[C@@]4(C)C3 (stereo partly specified) the Potency was inconclusive: 11.2 µM [inhibitor, full curve, poor fit]. In the case of Cn1cnnc1SCC(=O)Nc1ccc(Cl)c(S(=O)(=O)N2CCOCC2)c1, the Potency is reported as inconclusive: 8.91 µM [inhibitor, single point]. For O=C(CCn1c(=O)[nH]c2ccccc2c1=O)N1CC=C(c2ccccc2)CC1, the Potency was inconclusive: 0.224 µM [inhibitor, full curve, poor fit]. CCN(CC)c1ncnc2c1ncn2Cc1c(Cl)cccc1Cl was tested, and the Potency was “inactive”. In the case of O=C(Nc1cc(NC(=O)c2ccccc2)c(C(=O)O)cc1C(=O)O)c1ccccc1, the Potency is reported as inconclusive: 31.6 µM [inhibitor, partial curve]. O=[N+]([O-])c1cccc(/C=C/c2ccncc2)c1 was tested, and the Potency was inconclusive: 0.02 µM [inhibitor, full curve, poor fit]. With Cc1cc(=O)c2c(O)c(O)ccc2o1 the Potency was inconclusive: 25.1 µM [inhibitor, partial curve]. In the case of Cc1ccc(/C=C/C(=O)O)cc1S(=O)(=O)Nc1ccc(C(=O)O)cc1, the Potency is reported as “inactive”. c1ccc(-c2nnnn2CCOCCn2nnnc2-c2ccccc2)cc1 was tested, and the Potency was inconclusive: 35.5 µM [inhibitor, single point]. In the case of COc1ccc(-c2csc(NC(=O)c3ccccc3NS(=O)(=O)c3ccc(C)cc3)n2)cc1, the Potency is reported as “inactive”. O=C(Nc1cccc(S(=O)(=O)NC2=NCCCCC2)c1)c1cc(-c2ccccc2)nc2ccccc12 was tested, and the Potency was inconclusive: 28.2 µM [inhibitor, single point]. In the case of CCOC(=O)C1(O)Oc2cc(OC)cc(OC)c2C(=O)C1c1ccccc1 (stereo unspecified), the Potency is reported as inconclusive: 28.2 µM [inhibitor, partial curve]. With Cc1c(O)cc2n(c1=O)-c1ccc(Cl)cc1C2(C)C the Potency was inconclusive: 0.398 µM [inhibitor, full curve, poor fit]. For COc1ccc2occ(C(=O)c3coc4ccc(O)c(CN(C)C)c34)c2c1, the Potency was inconclusive: 17.8 µM [inhibitor, partial curve]. O=C(O)CCC(=O)N1N=C(c2ccco2)CC1c1ccco1 (stereo unspecified) was tested, and the Potency was “inactive”. With Cn1c(=O)c2c(nc(SCc3nn[nH]n3)n2Cc2ccccc2F)n(C)c1=O the Potency was “inactive”. With COc1cccc(OCCn2cccc2/C=C2/C(=N)N3OC(C)=CC3=NC2=O)c1 the Potency was inconclusive: 50.1 µM [inhibitor, partial curve]. For COc1cccc(CN2CCN(C(=O)c3cccc(OC)c3)CC2)c1, the Potency was “inactive”. Cc1ccc(Nc2ncnc(N)n2)cc1C was tested, and the Potency was inconclusive: 44.7 µM [inhibitor, single point]. In the case of C[n+]1ccccc1/C=N/O, the Potency is reported as inconclusive: 0.0794 µM [inhibitor, full curve, poor fit]. COc1ccccc1NC(=O)C/C(C)=N/NC(=O)COc1c(Br)cc(Br)cc1OC was tested, and the Potency was inconclusive: 14.1 µM [inhibitor, single point]. With CCCOC(=O)c1ccc(NC(=O)C(=O)NCCN(CC)CC)cc1 the Potency was inconclusive: 0.0501 µM [inhibitor, full curve, poor fit].
